From the supplement of paper PMC12819154, “High-throughput peptide-centric local stability assay extends protein–ligand identification to membrane proteins, tissues and bacteria” (Nature Structural & Molecular Biology, 2025)
This is one part of the list. Most entries show no effect beyond the scatter of the controls.

Chains of the proteins cited; added tags and fusions are not shown. Lines headed by an entry give the natural chain unless they say otherwise; changes in a name come on top.
UniProt P06684, whole entry: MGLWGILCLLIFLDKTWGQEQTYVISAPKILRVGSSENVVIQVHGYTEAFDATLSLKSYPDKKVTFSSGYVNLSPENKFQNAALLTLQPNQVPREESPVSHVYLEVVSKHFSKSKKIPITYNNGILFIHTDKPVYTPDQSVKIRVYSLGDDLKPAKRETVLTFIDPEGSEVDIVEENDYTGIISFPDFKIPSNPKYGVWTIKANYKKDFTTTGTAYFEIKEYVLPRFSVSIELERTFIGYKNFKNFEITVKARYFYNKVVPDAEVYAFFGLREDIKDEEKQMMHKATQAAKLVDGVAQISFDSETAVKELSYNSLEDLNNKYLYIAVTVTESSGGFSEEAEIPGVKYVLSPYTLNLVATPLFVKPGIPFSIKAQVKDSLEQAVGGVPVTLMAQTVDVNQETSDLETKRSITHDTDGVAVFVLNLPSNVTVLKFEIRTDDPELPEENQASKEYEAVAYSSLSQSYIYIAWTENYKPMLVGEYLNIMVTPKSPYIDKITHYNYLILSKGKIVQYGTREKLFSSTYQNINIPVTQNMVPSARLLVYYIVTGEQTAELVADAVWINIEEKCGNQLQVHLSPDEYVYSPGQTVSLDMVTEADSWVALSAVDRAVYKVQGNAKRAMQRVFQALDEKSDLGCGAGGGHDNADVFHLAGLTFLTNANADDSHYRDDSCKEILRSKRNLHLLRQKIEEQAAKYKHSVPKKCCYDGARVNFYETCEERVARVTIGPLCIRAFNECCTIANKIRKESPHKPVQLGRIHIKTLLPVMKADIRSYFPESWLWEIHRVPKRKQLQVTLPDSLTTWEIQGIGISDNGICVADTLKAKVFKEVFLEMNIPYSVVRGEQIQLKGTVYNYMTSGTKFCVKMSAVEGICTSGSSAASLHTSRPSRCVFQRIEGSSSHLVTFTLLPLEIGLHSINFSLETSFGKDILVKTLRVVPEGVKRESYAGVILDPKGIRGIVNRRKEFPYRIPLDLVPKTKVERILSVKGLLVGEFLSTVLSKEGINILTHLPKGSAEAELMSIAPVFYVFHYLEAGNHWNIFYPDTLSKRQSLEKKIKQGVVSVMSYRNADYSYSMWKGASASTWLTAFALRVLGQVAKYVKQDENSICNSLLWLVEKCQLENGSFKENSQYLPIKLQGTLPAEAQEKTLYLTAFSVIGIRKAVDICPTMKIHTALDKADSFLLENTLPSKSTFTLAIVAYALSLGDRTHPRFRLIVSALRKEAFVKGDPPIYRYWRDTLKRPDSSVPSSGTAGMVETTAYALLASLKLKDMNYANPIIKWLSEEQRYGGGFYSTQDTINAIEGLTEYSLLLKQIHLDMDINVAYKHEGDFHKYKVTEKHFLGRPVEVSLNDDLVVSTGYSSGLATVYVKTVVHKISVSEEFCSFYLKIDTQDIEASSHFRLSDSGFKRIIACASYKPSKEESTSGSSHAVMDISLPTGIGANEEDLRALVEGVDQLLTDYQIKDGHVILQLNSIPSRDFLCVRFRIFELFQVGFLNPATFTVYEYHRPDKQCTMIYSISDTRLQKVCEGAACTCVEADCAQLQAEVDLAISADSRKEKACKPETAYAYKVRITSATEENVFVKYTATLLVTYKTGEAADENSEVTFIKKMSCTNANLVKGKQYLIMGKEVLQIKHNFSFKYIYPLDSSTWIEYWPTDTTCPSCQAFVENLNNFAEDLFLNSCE
UniProt P11725: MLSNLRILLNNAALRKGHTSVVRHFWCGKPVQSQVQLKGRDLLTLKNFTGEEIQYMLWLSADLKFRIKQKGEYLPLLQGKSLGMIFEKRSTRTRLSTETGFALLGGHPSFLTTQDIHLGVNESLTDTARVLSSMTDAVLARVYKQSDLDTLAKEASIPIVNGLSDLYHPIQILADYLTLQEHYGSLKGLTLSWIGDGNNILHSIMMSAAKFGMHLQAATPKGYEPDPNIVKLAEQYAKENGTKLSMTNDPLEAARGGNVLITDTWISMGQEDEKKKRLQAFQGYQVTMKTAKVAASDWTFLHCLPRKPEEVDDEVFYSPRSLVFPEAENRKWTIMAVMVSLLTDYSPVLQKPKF
UniProt P15306, whole entry: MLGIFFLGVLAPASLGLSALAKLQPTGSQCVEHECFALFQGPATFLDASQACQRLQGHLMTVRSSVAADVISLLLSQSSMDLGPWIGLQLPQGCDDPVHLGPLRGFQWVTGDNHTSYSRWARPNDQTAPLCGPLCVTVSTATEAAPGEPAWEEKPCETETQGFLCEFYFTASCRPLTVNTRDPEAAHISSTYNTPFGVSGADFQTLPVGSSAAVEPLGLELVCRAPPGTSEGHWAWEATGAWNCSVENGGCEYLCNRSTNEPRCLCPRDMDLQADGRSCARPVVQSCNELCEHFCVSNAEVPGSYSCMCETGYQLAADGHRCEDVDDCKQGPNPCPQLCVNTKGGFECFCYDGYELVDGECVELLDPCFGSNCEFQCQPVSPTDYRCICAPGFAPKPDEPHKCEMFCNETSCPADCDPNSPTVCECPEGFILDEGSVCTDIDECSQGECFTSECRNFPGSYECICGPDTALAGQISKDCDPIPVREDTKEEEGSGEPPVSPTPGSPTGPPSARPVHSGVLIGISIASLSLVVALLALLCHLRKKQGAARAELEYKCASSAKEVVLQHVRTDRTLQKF
UniProt P01670, whole entry: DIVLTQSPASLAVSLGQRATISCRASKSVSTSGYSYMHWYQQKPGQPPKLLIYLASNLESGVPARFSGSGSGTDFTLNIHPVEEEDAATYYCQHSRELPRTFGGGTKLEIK
UniProt P12400: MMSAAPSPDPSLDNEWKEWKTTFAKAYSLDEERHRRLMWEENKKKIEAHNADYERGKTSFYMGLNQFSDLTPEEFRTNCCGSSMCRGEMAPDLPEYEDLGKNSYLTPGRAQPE
UniProt O88967: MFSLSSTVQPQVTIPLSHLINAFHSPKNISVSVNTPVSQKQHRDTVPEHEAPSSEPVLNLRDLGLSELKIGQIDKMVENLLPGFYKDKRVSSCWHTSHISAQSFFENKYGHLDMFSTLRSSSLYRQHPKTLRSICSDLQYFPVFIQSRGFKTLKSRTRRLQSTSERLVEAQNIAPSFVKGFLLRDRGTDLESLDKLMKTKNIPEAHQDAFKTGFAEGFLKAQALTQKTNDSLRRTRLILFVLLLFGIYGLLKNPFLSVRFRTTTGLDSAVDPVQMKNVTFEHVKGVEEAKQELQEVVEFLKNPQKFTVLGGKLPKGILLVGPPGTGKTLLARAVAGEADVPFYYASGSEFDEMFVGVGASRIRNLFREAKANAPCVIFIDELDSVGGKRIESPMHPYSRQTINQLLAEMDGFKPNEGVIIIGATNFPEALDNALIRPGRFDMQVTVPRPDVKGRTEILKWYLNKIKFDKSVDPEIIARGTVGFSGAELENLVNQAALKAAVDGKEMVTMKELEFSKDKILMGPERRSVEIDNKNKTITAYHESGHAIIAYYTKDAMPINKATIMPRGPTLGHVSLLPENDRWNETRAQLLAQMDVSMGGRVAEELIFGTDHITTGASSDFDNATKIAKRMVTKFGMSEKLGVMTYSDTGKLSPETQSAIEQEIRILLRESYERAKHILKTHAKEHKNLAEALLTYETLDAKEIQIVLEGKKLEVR
UniProt P13609: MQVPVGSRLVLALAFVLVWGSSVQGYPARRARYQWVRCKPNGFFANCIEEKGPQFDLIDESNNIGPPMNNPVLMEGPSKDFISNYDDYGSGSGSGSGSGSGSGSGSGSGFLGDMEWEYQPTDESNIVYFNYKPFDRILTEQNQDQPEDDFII
UniProt P02468: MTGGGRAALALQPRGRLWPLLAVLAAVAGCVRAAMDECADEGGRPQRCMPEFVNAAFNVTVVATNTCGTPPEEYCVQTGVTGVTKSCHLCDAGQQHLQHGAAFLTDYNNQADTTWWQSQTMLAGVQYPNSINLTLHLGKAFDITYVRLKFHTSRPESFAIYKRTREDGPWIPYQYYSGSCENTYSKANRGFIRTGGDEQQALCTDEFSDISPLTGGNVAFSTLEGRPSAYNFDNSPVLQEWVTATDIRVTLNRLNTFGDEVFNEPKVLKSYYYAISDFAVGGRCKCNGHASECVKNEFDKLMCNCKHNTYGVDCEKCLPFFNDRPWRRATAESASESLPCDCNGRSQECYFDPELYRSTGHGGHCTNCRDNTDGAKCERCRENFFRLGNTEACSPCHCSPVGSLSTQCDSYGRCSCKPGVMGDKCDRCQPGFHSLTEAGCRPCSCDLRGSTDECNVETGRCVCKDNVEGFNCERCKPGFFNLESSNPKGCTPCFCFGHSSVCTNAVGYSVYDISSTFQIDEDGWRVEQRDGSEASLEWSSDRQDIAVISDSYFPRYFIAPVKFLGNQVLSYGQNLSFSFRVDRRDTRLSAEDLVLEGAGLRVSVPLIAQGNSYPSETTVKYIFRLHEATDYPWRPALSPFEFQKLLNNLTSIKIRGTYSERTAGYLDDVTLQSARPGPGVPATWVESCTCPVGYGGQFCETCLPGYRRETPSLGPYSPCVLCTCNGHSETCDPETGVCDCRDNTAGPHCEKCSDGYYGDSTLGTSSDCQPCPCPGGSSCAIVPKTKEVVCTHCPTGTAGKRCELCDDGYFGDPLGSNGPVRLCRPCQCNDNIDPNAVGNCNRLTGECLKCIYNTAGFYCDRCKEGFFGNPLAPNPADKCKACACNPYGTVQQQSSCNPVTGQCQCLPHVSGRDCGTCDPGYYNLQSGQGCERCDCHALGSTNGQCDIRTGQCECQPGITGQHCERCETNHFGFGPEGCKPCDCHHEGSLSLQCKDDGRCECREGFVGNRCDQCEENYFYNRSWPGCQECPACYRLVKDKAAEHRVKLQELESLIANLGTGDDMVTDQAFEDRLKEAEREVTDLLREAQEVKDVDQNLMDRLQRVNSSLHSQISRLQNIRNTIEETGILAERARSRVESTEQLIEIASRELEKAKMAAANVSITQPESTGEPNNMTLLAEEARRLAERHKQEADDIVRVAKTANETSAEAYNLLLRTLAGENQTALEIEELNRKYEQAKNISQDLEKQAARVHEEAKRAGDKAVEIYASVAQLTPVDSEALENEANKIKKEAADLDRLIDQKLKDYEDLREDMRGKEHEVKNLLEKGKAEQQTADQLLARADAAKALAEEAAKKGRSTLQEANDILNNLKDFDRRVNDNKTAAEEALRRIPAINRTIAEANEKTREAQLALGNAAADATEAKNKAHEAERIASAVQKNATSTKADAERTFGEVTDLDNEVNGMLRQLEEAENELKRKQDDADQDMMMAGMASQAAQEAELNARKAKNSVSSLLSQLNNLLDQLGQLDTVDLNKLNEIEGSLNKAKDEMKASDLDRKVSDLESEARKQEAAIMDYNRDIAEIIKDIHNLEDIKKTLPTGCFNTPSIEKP
UniProt P14211: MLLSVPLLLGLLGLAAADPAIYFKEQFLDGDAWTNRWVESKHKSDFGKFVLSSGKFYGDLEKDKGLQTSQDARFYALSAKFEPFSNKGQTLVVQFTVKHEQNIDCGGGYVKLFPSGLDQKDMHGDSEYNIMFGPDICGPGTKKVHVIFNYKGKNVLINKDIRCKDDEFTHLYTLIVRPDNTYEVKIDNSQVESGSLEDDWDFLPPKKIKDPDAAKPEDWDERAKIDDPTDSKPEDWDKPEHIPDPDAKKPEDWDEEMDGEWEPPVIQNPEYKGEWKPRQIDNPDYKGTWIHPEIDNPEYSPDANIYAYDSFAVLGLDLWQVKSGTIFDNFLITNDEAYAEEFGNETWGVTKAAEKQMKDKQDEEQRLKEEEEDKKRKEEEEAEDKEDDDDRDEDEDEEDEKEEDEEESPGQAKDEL
UniProt P01942: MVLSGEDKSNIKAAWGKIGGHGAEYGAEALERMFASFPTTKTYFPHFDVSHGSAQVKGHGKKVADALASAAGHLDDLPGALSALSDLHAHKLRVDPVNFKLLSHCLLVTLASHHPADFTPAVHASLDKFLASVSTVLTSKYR
UniProt P11589: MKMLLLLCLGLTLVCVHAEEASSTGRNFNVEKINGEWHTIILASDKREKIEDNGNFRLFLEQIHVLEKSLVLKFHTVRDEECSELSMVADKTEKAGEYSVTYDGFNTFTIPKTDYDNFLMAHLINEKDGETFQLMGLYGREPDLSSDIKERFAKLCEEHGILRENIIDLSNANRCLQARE
UniProt P07759: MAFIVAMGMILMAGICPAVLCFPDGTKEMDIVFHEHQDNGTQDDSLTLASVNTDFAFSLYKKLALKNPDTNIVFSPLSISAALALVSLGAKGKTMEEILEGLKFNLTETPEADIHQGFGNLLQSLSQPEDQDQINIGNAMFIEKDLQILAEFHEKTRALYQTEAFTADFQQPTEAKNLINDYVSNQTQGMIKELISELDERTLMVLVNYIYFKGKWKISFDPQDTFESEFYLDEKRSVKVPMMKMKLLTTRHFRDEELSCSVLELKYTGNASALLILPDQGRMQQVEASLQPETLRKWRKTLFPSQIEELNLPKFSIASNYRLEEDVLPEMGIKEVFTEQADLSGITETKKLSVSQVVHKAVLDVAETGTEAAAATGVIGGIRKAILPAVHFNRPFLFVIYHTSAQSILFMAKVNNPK

compound: CN[C@@H]1C[C@H]2O[C@@](C)([C@@H]1OC)n1c3ccccc3c3c4c(c5c6ccccc6n2c5c31)C(=O)NC4 [staurosporine]; assay: log2 fold change of tryptic peptide abundance, ligand vs vehicle (limited proteolysis) (log2 ratio); higher = more trypsin-susceptible (destabilized); settings: ligand concentration: 20 uM; sample: mouse liver crude lysate; replicate design: treated separately

Target	log2 fold change
UniProt P06684 (peptide sequence: HSVPKKCCYDGAR, peptide start residue: 696)	0.415
UniProt P00158 (peptide sequence: KTHPLFK, peptide start residue: 6)	-0.323
UniProt P15535 (peptide sequence: KNEPNPQR, peptide start residue: 349)	-0.468
UniProt P09671 (peptide sequence: GGGEPKGELLEAIKR, peptide start residue: 109)	-0.529
UniProt P11725 (peptide sequence: LQAFQGYQVTMKTAK, peptide start residue: 278)	0.645
UniProt P04919 (peptide sequence: ANFLEKPVLGFVR, peptide start residue: 247)	-0.539
UniProt P12849 (peptide sequence: KMYEEFLSK, peptide start residue: 244)	0.192
UniProt P07903 (peptide sequence: KFVIPLEEEEVPCAGVKPLFR, peptide start residue: 21)	-0.295
UniProt P15306 (peptide sequence: EVVLQHVR, peptide start residue: 562)	-0.00667
UniProt P03975 (peptide sequence: QCADSFIPR, peptide start residue: 200)	0.375
UniProt P01670 (peptide sequence: ELPRTFGGGTK, peptide start residue: 97)	0.493
UniProt P01897 (peptide sequence: YISVGYVDNK, peptide start residue: 46)	-0.2
UniProt P12400 (peptide sequence: KIEAHNADYER, peptide start residue: 45)	0.0139
UniProt P08556 (peptide sequence: VKDSDDVPMVLVGNK, peptide start residue: 103)	0.146
UniProt O88967 (peptide sequence: TGFAEGFLK, peptide start residue: 212)	-0.168
UniProt P13609 (peptide sequence: CKPNGFFANCIEEK, peptide start residue: 38)	-0.232
UniProt P02468 (peptide sequence: HKQEADDIVR, peptide start residue: 1188)	-0.251
UniProt P05480 (peptide sequence: GSLLDFLK, peptide start residue: 325)	0.273
UniProt P14211 (peptide sequence: DKQDEEQR, peptide start residue: 359)	-0.567
UniProt P11688 (peptide sequence: AQLKPPATSDA, peptide start residue: 1043)	-0.132
UniProt P09411 (peptide sequence: SVVLMSHLGRPDGVPMPDK, peptide start residue: 57)	0.431
UniProt P13745 (peptide sequence: FLQPGSQR, peptide start residue: 197)	0.117
UniProt P10852 (peptide sequence: VAEDETEAGVK, peptide start residue: 43)	-0.215
UniProt P01942 (peptide sequence: TYFPHFDVSHGSAQVK, peptide start residue: 42)	-0.115
UniProt P12023 (peptide sequence: QQLVETHMAR, peptide start residue: 451)	0.269
UniProt P11589 (peptide sequence: LFLEQIHVLEK, peptide start residue: 58)	0.0259
UniProt O88951 (peptide sequence: RGDQLLSVNGVSVEGEHHEK, peptide start residue: 151)	-0.19
UniProt P07759 (peptide sequence: KLSVSQVVHK, peptide start residue: 351)	0.349

Pulled one by one from the list above:
Target	log2 fold change
UniProt P09671 (peptide sequence: GGGEPKGELLEAIKR, peptide start residue: 109)	-0.529
UniProt P12023 (peptide sequence: QQLVETHMAR, peptide start residue: 451)	0.269
